The source of these data is PMC9018197.

Sequences of proteins named here, by UniProt entry; tags and fusion partners are left off.
UniProt P10415: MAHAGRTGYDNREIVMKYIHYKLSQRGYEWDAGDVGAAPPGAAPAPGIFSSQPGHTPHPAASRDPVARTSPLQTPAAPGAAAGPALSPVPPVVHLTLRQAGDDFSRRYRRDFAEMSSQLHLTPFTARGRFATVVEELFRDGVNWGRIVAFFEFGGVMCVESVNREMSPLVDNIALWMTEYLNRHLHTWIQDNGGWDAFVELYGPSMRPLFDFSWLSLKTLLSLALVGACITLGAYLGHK

Where two headings read alike, the source gives them in different places. No constants are given. Whether binding was seen depends on the method and setting. In cells and extracts the contact can be indirect. Some binding calls cover weakened binding; strength is not graded here.

Assay [1] addresses Beclin1 (human (endogenous in HaCaT)) (UniProt Q14457). As to the kind of experiment: co-IP; HaCaT lysate precipitated with anti-Beclin1 antibody (1:50, overnight, 4°C) and Protein G magnetic beads, washed with PBST, western blot; cells with or without 100 or 200 mM trehalose for 12 or 24 hours, or pretreated with 100 mM trehalose for 24 hours before 50 mJ/cm^2 UVB. In general terms: Immunoblotting shows a protein as a band on a membrane.

For assay [2] the target is unchanged. Described as above. This is another data set of the same source.

“B-cell lymphoma 2 (Bcl2) (from UniProt P10415 1-239)”: the binding entry in assay [1] is listed as “binds”.

B1: tissue inhibitor of metalloproteinase (TIMP) 3 (protein, UniProt P35625 24-211)
chain: CTCSPSHPQDAFCNSDIVIRAKVVGKKLVKEGPFGTLVYTIKQMKMYRGFTKMPHVQYIHTEASESLCGLKLEVNKYQYLLTGRVYDGKMYTGLCNFVERWDQLTLSQRKGLNYRYHLGCNCKIKSCYYLPCFVTSKNECLWTDMLSNFGYPGYQSKHYACIRQKGGYCSWYRGWAPPDKSIINATDP
B1: the binding entry in assay [2] was “binds”.
